PubChem BioAssay AID1259274 – Sanger Institute | 2017
The whole screen tested 794 reagents; this is an unselected part. 11 of them (1.4%) were called active. 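Calls rest on knock-down without drug only; synergy scores with anchor drugs were not used for the essential call.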 Viability is capped at 1. Not all columns of the deposit are shown. The record does not give: the amount of reagent, the time to read-out.

Aim: 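siRNA screen of kinases for partners that act in synergy with targeted drugs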 (primary screen)
Cell system: human RKO colorectal cancer cells
Reagents: siRNA pool against human genes
Treatment: anchor drugs BYL719 at 1 µM, cetuximab at 5 µg/ml or trametinib at 10 nM; DMSO vehicle as the no-drug arm
Measured: 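Viability of cells versus control pool 2 (non-targeting) averaged across replicates; knock-down-only robust z-score; for every anchor drug (BYL719, cetuximab, trametinib) a synergy score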
Direction: viability z-score, siRNA alone: higher = more viable cells; low values mean essential gene; viability, siRNA alone, vehicle: higher = more viable cells
Active means: 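Essential when the robust viability z-score with siRNA only falls below -3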
Calls: active = essential when knocked down alone; inactive = no change alone

For MVK (GeneID 4598) the deposit lists viability z-score, siRNA alone 1.12; viability, siRNA alone, vehicle (fraction of control) = 0.994; inactive. WT1 (GeneID 7490) showed viability z-score, siRNA alone 0.318; viability, siRNA alone, vehicle (fraction of control) = 0.925; inactive. Knock-down of DCK (GeneID 1633) gave: viability z-score, siRNA alone -1.83; viability, siRNA alone, vehicle (fraction of control) = 0.741; inactive. Knock-down of NEK4 (GeneID 6787) came out at: viability z-score, siRNA alone -0.751; viability, siRNA alone, vehicle (fraction of control) = 0.834; inactive. Depletion of NF1 (GeneID 4763) resulted in: viability z-score, siRNA alone 0.6; viability, siRNA alone, vehicle (fraction of control) = 0.949; inactive. Depletion of PCK1 (GeneID 5105) came out at: viability z-score, siRNA alone -1.04; viability, siRNA alone, vehicle (fraction of control) = 0.809; inactive.

For ITPK1 (GeneID 3705), the entry reads viability z-score, siRNA alone 1.19; viability, siRNA alone, vehicle (fraction of control) = 1; inactive. After knock-down of PRKCA (GeneID 5578), the screen gave viability z-score, siRNA alone -0.492; viability, siRNA alone, vehicle (fraction of control) = 0.856; inactive. UCK2 (GeneID 7371) showed viability z-score, siRNA alone -0.616; viability, siRNA alone, vehicle (fraction of control) = 0.845; inactive. Depletion of TK2 (GeneID 7084) came out at: viability z-score, siRNA alone 0.518; viability, siRNA alone, vehicle (fraction of control) = 0.942; inactive. For MAP3K21 (GeneID 84451), the entry reads viability z-score, siRNA alone 0.447; viability, siRNA alone, vehicle (fraction of control) = 0.936; inactive. Depletion of RAF1 (GeneID 5894) resulted in: viability z-score, siRNA alone 1.19; viability, siRNA alone, vehicle (fraction of control) = 1; inactive.

After knock-down of PANK2 (GeneID 80025), the screen gave viability z-score, siRNA alone 0.142; viability, siRNA alone, vehicle (fraction of control) = 0.91; inactive. With knock-down of MGA (GeneID 23269) the results were viability z-score, siRNA alone -0.974; viability, siRNA alone, vehicle (fraction of control) = 0.815; inactive. After knock-down of ELP1 (GeneID 8518) the results were viability z-score, siRNA alone 1.19; viability, siRNA alone, vehicle (fraction of control) = 1; inactive. MED12 (GeneID 9968) showed viability z-score, siRNA alone -2.49; viability, siRNA alone, vehicle (fraction of control) = 0.685; inactive. With knock-down of ROCK1 (GeneID 6093) the results were viability z-score, siRNA alone 0.596; viability, siRNA alone, vehicle (fraction of control) = 0.949; inactive. With knock-down of CDKN2C (GeneID 1031) the results were viability z-score, siRNA alone 0.88; viability, siRNA alone, vehicle (fraction of control) = 0.973; inactive.

Silencing of CDK11A (GeneID 728642) gave: viability z-score, siRNA alone -3.34; viability, siRNA alone, vehicle (fraction of control) = 0.612; active. Against ABL1 (GeneID 25), the entry reads viability z-score, siRNA alone 0.664; viability, siRNA alone, vehicle (fraction of control) = 0.955; inactive. For AURKA (GeneID 6790) the deposit lists viability z-score, siRNA alone -0.935; viability, siRNA alone, vehicle (fraction of control) = 0.818; inactive. After knock-down of SKAP1 (GeneID 8631), the screen gave viability z-score, siRNA alone 1.19; viability, siRNA alone, vehicle (fraction of control) = 1; inactive. Silencing of CDC7 (GeneID 8317) gave: viability z-score, siRNA alone 1.19; viability, siRNA alone, vehicle (fraction of control) = 1; inactive. Depletion of CTCF (GeneID 10664) gave: viability z-score, siRNA alone -2.1; viability, siRNA alone, vehicle (fraction of control) = 0.718; inactive.

After knock-down of GRK4 (GeneID 2868) the results were viability z-score, siRNA alone -0.979; viability, siRNA alone, vehicle (fraction of control) = 0.814; inactive. PRKCD (GeneID 5580) scored viability z-score, siRNA alone 0.398; viability, siRNA alone, vehicle (fraction of control) = 0.932; inactive. For STK32C (GeneID 282974), the values are viability z-score, siRNA alone 1.19; viability, siRNA alone, vehicle (fraction of control) = 1; inactive. For BCR (GeneID 613), the values are viability z-score, siRNA alone -1.48; viability, siRNA alone, vehicle (fraction of control) = 0.771; inactive. MSR1 (GeneID 4481) gave viability z-score, siRNA alone 0.475; viability, siRNA alone, vehicle (fraction of control) = 0.939; inactive. After knock-down of ITPKA (GeneID 3706), the screen gave viability z-score, siRNA alone 1.19; viability, siRNA alone, vehicle (fraction of control) = 1; inactive.

With knock-down of MAP2K4 (GeneID 6416), the screen gave viability z-score, siRNA alone -0.95; viability, siRNA alone, vehicle (fraction of control) = 0.817; inactive. After knock-down of CDK20 (GeneID 23552) the results were viability z-score, siRNA alone -1.62; viability, siRNA alone, vehicle (fraction of control) = 0.759; inactive. CLK2 (GeneID 1196) showed viability z-score, siRNA alone -1.17; viability, siRNA alone, vehicle (fraction of control) = 0.798; inactive. Silencing of CDKL4 (GeneID 344387) resulted in: viability z-score, siRNA alone 0.641; viability, siRNA alone, vehicle (fraction of control) = 0.953; inactive. Against PFKFB3 (GeneID 5209), the entry reads viability z-score, siRNA alone -0.452; viability, siRNA alone, vehicle (fraction of control) = 0.859; inactive. Depletion of CIB2 (GeneID 10518) gave: viability z-score, siRNA alone -0.483; viability, siRNA alone, vehicle (fraction of control) = 0.857; inactive.
